Data from paper PMC4329186.

Assays:
[1] = tested on: human alpha-thrombin (human); test: ctITP capillary electrophoresis; details: 200 nM DNA, 200 nM thrombin, lower signal and resolution, Tris-HCl sample buffer, no added metal ions, 30 min incubation, Tris and glycine reagents for CE, commercial protein, label: SYBR Gold (on-column, noncovalent), folded or branched DNA
[2] = tested on: human alpha-thrombin (human); test: ctITP-NECEEM capillary electrophoresis; details: SYBR Gold on-column label; Tris-HCl sample buffer, no added metal ions, 30 min incubation; Tris and glycine reagents for CE; commercial protein; label: SYBR Gold (on-column, noncovalent); folded or branched DNA

Q: Does “CCTCTCTATGGGCAGTCGGTGATAGTCCGTGGTAGGGCAGGTTGGGGTGACTTAAGGAGTTCAATATCTGAGTCGGAGACACGCAGGGATGAGATGG” bind ([1]; 10 mM K+)?
A: Result: binds

Q: Does “CCTCTCTATGGGCAGTCGGTGATAGTCCGTGGTAGGGCAGGTTGGGGTGACTTAAGGAGTTCAATATCTGAGTCGGAGACACGCAGGGATGAGATGG” bind ([1]; 10 mM Mg2+)?
A: Result: binds

Q: Does “CCTCTCTATGGGCAGTCGGTGATAGTCCGTGGTAGGGCAGGTTGGGGTGACTTAAGGAGTTCAATATCTGAGTCGGAGACACGCAGGGATGAGATGG” bind ([1]; 10 mM Na+)?
A: Result: binds

Q: What about the Kd [2] of the same sequence?
A: Its Kd is 124 nM.

Construct, isoform or probe ends are uncertain for at least one entry. For some of these results: At least one verdict rests on a figure or table, not on a statement of the authors.
